# This is one part of the list.
# Sequences of proteins named here, by UniProt entry; tags and fusion partners are left off. A change or cut given only in a name is not applied to a line headed by its entry.
# UniProt Q04721: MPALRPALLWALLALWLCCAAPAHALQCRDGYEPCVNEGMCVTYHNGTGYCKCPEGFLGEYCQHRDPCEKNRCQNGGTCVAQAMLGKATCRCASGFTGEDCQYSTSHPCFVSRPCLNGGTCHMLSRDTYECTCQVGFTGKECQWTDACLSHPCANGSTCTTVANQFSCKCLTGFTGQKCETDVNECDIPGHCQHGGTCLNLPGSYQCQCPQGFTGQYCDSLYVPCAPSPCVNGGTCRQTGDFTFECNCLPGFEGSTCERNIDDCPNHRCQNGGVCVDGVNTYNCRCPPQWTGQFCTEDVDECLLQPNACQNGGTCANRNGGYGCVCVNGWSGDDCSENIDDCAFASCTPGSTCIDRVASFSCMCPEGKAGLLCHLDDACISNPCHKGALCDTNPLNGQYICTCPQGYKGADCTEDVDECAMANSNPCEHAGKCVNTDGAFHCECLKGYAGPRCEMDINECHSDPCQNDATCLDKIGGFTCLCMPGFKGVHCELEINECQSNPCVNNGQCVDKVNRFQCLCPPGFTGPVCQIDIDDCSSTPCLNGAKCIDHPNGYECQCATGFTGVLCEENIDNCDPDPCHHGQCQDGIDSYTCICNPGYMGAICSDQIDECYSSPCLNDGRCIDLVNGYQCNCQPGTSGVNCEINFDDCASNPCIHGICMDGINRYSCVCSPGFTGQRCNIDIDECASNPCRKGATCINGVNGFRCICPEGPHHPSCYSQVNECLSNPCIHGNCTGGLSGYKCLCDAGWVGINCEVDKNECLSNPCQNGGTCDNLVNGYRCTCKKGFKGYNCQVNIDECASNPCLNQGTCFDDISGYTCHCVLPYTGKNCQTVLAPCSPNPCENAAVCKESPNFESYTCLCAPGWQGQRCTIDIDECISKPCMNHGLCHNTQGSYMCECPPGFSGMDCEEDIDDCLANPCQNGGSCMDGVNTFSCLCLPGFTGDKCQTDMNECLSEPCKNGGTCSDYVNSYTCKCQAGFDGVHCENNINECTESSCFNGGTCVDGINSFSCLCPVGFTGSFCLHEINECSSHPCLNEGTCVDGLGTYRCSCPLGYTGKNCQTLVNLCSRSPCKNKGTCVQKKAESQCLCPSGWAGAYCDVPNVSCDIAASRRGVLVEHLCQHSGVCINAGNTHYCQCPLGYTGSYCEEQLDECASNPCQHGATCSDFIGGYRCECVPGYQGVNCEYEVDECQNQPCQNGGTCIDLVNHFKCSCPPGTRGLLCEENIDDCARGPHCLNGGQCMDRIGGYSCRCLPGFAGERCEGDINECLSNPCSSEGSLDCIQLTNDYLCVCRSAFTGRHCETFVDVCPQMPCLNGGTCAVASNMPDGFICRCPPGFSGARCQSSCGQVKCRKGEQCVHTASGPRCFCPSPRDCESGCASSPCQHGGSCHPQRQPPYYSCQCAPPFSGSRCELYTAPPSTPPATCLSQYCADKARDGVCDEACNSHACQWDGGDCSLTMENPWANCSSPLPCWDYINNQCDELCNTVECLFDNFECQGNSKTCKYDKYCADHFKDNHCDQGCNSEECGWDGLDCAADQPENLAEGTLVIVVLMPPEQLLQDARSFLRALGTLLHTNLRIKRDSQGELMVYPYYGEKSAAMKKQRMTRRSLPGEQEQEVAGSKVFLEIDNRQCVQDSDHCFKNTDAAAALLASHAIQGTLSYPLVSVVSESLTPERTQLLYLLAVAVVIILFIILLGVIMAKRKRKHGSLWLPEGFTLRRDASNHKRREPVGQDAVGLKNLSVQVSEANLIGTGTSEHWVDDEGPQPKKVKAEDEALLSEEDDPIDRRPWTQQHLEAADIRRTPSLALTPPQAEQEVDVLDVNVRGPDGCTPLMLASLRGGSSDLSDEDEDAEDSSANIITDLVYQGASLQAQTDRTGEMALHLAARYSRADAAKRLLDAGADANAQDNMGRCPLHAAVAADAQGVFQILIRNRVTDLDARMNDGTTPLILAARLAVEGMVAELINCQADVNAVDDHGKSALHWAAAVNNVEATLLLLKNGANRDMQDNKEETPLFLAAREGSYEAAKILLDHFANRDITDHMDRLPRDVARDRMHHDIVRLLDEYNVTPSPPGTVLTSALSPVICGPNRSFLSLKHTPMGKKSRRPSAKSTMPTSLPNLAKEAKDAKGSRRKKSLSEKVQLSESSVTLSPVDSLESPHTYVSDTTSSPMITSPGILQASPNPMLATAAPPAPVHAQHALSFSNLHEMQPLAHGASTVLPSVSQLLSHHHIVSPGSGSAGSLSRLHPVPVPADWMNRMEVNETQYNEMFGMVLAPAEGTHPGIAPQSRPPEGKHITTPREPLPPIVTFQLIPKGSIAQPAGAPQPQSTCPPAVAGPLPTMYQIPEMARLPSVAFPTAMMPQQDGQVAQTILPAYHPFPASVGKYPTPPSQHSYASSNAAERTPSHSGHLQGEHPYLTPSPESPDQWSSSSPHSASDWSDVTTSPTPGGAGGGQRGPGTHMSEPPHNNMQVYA
# UniProt Q8NDH3: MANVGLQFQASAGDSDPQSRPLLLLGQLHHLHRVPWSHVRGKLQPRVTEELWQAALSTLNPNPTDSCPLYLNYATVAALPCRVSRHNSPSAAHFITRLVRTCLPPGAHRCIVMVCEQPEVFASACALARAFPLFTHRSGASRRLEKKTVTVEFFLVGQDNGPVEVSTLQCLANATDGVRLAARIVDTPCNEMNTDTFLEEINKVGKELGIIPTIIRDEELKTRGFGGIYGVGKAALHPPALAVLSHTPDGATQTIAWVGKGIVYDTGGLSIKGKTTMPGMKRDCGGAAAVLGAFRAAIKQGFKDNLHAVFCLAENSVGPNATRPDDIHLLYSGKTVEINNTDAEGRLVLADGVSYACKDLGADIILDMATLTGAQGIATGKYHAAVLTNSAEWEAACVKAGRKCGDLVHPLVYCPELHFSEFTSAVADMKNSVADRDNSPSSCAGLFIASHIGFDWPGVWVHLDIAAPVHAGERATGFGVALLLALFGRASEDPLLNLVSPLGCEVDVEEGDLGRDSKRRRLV
# UniProt Q86UT6, whole entry, looked up: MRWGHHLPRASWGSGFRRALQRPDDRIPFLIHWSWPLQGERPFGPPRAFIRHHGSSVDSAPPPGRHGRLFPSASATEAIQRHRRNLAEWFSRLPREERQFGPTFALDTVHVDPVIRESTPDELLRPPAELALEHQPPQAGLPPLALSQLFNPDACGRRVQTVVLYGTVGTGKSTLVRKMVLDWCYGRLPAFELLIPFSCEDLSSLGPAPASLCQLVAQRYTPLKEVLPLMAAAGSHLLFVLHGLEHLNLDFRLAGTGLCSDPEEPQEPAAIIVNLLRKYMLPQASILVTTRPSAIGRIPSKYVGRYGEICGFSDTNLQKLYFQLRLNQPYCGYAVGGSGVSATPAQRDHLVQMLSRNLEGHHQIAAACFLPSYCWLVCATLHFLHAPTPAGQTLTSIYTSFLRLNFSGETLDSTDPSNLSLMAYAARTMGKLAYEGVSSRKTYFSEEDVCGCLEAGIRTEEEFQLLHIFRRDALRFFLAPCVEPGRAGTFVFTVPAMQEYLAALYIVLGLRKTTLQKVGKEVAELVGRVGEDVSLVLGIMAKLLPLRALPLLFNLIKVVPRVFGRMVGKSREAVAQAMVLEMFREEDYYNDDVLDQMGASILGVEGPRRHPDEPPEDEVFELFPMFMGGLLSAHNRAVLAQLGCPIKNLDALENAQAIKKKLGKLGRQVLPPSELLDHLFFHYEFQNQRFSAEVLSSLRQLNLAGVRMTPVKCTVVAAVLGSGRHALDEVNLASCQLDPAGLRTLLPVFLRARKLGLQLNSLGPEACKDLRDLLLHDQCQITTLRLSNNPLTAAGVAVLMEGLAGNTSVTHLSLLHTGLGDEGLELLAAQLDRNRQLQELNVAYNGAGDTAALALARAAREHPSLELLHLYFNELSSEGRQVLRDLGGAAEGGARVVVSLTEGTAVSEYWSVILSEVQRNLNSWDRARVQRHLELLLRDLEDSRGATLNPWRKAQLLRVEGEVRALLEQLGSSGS
# UniProt Q9NQR4: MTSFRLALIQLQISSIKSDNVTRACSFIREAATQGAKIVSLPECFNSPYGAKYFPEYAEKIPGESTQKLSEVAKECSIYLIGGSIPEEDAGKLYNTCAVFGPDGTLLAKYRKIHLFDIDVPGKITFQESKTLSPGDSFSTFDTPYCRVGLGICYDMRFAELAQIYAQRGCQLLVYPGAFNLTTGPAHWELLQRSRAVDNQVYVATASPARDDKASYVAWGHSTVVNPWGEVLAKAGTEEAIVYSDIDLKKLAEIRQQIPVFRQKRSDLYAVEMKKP
# UniProt Q15738: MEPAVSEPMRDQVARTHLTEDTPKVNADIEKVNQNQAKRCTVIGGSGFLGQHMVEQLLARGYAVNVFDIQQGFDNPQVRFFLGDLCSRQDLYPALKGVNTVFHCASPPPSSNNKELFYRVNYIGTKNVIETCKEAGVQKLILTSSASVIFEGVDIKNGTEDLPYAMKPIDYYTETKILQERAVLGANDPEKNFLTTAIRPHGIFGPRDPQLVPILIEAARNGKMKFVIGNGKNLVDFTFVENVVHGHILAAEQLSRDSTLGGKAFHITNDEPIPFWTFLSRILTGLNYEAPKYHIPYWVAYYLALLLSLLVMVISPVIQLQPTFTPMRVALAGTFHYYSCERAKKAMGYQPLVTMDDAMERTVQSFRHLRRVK
# UniProt Q86WI3: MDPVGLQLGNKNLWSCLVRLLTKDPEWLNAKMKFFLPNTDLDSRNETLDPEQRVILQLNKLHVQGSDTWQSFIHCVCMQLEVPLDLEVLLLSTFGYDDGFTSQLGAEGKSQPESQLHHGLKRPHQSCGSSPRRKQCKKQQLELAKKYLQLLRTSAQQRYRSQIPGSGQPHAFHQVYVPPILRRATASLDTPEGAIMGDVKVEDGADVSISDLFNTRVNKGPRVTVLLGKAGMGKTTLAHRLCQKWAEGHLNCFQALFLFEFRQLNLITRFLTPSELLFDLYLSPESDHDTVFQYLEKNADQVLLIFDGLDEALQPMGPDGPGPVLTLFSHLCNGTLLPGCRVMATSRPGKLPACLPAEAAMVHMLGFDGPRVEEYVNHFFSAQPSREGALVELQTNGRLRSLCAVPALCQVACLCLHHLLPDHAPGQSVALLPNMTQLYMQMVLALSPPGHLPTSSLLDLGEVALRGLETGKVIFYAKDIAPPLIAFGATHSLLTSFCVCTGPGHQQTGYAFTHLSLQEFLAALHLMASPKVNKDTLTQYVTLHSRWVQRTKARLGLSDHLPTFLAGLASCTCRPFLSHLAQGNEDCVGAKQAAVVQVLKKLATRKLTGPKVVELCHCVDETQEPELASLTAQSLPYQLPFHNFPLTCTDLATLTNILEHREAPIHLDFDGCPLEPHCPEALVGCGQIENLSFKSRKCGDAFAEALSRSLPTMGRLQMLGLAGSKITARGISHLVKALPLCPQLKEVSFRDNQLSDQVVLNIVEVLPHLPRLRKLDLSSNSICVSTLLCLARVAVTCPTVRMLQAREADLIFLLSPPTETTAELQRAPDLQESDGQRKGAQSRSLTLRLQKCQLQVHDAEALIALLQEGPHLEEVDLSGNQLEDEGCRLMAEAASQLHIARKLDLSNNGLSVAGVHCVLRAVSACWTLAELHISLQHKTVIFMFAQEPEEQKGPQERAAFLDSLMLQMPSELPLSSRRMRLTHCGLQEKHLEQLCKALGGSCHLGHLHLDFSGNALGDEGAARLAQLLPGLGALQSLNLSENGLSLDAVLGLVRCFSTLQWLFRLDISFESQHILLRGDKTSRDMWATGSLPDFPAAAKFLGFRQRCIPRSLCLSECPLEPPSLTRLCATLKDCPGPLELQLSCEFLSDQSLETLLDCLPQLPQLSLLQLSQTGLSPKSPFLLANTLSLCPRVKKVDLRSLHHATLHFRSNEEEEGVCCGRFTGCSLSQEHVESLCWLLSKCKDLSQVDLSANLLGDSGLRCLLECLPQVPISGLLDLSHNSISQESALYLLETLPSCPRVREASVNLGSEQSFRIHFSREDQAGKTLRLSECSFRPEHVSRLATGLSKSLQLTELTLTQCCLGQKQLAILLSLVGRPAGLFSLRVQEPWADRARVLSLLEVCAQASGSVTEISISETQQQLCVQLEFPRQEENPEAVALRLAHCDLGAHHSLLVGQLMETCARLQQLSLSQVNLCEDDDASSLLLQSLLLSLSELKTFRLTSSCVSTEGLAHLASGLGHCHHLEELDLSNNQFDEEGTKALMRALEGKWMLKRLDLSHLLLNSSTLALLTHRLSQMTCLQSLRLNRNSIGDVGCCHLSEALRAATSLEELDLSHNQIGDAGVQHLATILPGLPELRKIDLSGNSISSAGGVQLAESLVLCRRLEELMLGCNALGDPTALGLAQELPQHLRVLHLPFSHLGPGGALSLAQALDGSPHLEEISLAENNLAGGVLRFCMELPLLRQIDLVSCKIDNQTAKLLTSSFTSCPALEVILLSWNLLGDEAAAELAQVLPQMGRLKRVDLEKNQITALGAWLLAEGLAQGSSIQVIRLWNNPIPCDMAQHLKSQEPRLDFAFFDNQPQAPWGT
# Compound: CC1Cc2ccccc2N1C(=O)C1CCCN(C1)C(=O)CCl (mixture of isomers) [TRIM25 ligand 11 (diastereomer mixture)]
# Experiment: probe-labelled cysteine peptide fold change vs DMSO (competition) (log2 fold change); higher = less target engagement (more negative = stronger competition)
# Details: 50 µM; THP-1; incubation time: 4 h
# 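Note: competitive chemoproteomic profiling in live THP-1 cells with an iodoacetamide desthiobiotin (IA-DTB) probe, comparing probe-labelled peptide intensities in compound-treated cells against DMSO-treated controls.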
row,Target,probe-labelled cysteine peptide fold change
1,NMD3_Q96D46_321_QLEEFIVMECSIVQDIK (UniProt Q96D46),0.154
2,NLN_Q9BYT8_507_TYFHEFGHVMHQICAQTDFAR (UniProt Q9BYT8),0.0522
3,NOTCH2_Q04721_1211_CSCPPGTR (UniProt Q04721),0.0473
4,NKTR_P30414_173_VIDCGVLATK (UniProt P30414),-0.176
5,NSUN2_Q08J23_235_LSSPCIMVVNHDASSIPR (UniProt Q08J23),-0.0234
6,NPEPL1_Q8NDH3_284_DCGGAAAVLGAFR (UniProt Q8NDH3),0.0255
7,NLRX1_Q86UT6_779_DLLLHDQCQITTLR (UniProt Q86UT6),0.0636
8,NPTN_Q9Y639_218_AEDSGEYHCVYHFVSAPK (UniProt Q9Y639),-0.0424
9,NSUN5_Q96P11_278+279_AGVSCCELAEEDFLAVSPSDPR (UniProt Q96P11),-0.117
10,NPEPL1_Q8NDH3_397_YHAAVLTNSAEWEAACVK (UniProt Q8NDH3),0.0187
11,NIT2_Q9NQR4_76_ECSIYLIGGSIPEEDAGK (UniProt Q9NQR4),0.194
12,NSDHL_Q15738_104_GVNTVFHCASPPPSSNNK (UniProt Q15738),-0.0494
13,NNT_Q13423_1073_KTCDALQAK (UniProt Q13423),-0.287
14,NRF1_Q16656_229_ESCKPIWWPEDIPWANVR (UniProt Q16656),-0.0561
15,NLRC5_Q86WI3_917_KLDLSNNGLSVAGVHCVLR (UniProt Q86WI3),0.0138
16,NKRF_O15226_453_DLVVYENSSNPVCTLNDTAQFNR (UniProt O15226),0.0134
17,NLE1_Q9NVX2_251_ILTGHTQSVTCLR (UniProt Q9NVX2),-0.00734
18,NOTCH1_P46531_1345_CPAGFEGATCENDAR (UniProt P46531),-0.039
19,NOL10_Q9BSC4_55_RIELIQDFEMPTVCTTIK (UniProt Q9BSC4),-0.132
20,NLRX1_Q86UT6_735_HALDEVNLASCQLDPAGLR (UniProt Q86UT6),-0.142

# 2 entries picked at random from those above, as already listed:
row,Target,probe-labelled cysteine peptide fold change
15,NLRC5_Q86WI3_917_KLDLSNNGLSVAGVHCVLR (UniProt Q86WI3),0.0138
20,NLRX1_Q86UT6_735_HALDEVNLASCQLDPAGLR (UniProt Q86UT6),-0.142

# From the supplement of paper PMC12067093, “Discovery and optimisation of a covalent ligand for TRIM25 and its application to targeted protein ubiquitination” (Chemical Science, 2025)
